# Data as given in PubChem BioAssay AID1259305 (Sanger Institute, 2017)
# Assay: 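Kinase genes whose silencing acts in synergy with trametinib, BYL719 or cetuximab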 (follow-up of hits)
# Cell system: human DIFI colorectal cancer cells
# Reagent: single siRNA against human genes
# Conditions: BYL719 1 µM, cetuximab 5 µg/ml or trametinib 10 nM, or DMSO vehicle, added one day after transfection; exposure time not given
# Measurement: 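Survival relative to a non-targeting siRNA control pool averaged across replicates, with synergy scores per drug weighing the combination against siRNA only and drug only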
# Scale: synergy score with BYL719 and synergy score with Cetuximab and synergy score with Trametinib: higher = stronger combined killing than expected; viability, knock-down alone: higher = more cells surviving knock-down; viability with Cetuximab: higher = more cells surviving knock-down plus drug
# Rule for the call: 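Synergy score over 0.10 with any single drug gives a synergistic, that is synthetic lethal, call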
# Shown is an unselected part of 160 reagents. In the full data, 96 (60%) were called active. 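Each call covers one siRNA sequence in one cell line only; gene-level confirmation needs agreement across siRNAs and lines.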 Reagents against one gene are numbered here. Viability is capped at 1. The record does not give: the amount of reagent, the time to read-out.
gene,reagent,synergy score with BYL719,synergy score with Cetuximab,synergy score with Trametinib,"viability, knock-down alone",viability with Cetuximab,activity call
CHD4 (GeneID 1108),1,-0.0232,0.0276,0.048,0.285,0.0851,inactive
CHD4 (GeneID 1108),2,0.115,0.127,0.187,0.608,0.114,active
CHD4 (GeneID 1108),3,0.0523,0.0426,0.0386,0.783,0.267,inactive
CHD4 (GeneID 1108),4,0.103,0.118,0.0552,0.959,0.262,active
NLK (GeneID 51701),1,0.121,0.0226,0.0178,0.939,0.349,active
NLK (GeneID 51701),2,0.105,0.235,0.312,0.849,0.101,active
NLK (GeneID 51701),3,0.153,0.0682,0.2,0.997,0.327,active
NLK (GeneID 51701),4,-0.228,-0.00778,-0.243,1,0.404,inactive

Next part; the last 2 above are carried over.
gene,reagent,synergy score with BYL719,synergy score with Cetuximab,synergy score with Trametinib,"viability, knock-down alone",viability with Cetuximab,activity call
NLK (GeneID 51701),3,0.153,0.0682,0.2,0.997,0.327,active
NLK (GeneID 51701),4,-0.228,-0.00778,-0.243,1,0.404,inactive
CRIM1 (GeneID 51232),1,-0.00451,-0.05,0.0358,0.735,0.341,inactive
CRIM1 (GeneID 51232),2,0.036,0.202,0.276,0.781,0.107,active
CRIM1 (GeneID 51232),3,0.25,0.0513,0.113,0.911,0.309,active
CRIM1 (GeneID 51232),4,0.0919,0.129,0.3,0.549,0.0885,active
IKBKB (GeneID 3551),1,0.0951,0.156,0.222,0.823,0.17,active
IKBKB (GeneID 3551),2,0.181,0.135,0.202,0.73,0.154,active
IKBKB (GeneID 3551),3,0.0227,0.057,0.121,0.933,0.312,active
IKBKB (GeneID 3551),4,-0.0597,0.0607,0.0269,0.75,0.236,inactive
STK36 (GeneID 27148),1,0.00295,0.0578,0.333,0.879,0.29,active
STK36 (GeneID 27148),2,-0.0425,0.122,0.14,1,0.274,active
STK36 (GeneID 27148),3,-0.0326,0.0377,0.0195,0.777,0.27,inactive
STK36 (GeneID 27148),4,0.136,-0.0318,0.0539,0.854,0.37,active
